Data source: PubChem BioAssay AID1508588 (Peter MacCallum Cancer Centre, 2020)
Screen: 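Knock-downs boosting vemurafenib effects on melanoma cell growth or lactate release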 (primary screen). Cells: human WM266.4 melanoma cells (BRAF V600 mutant). Reagent: siRNA pool against human genes, 40 nM. Timing: 96 h from transfection to read-out. Treatment: vemurafenib 300 nM (about IC25), added 48 h after transfection, for 48 h; comparison arm got DMSO vehicle only. Measured: 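Cell gain (DAPI nuclei at end minus before drug, mean of two replicates) and medium lactate by absorbance per cell, both as ratio to non-targeting siRNA, also grouped into fold-change classes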. Reading the numbers: cell gain with vemurafenib: higher = more cell gain than with non-targeting siRNA; lactate per cell with vemurafenib: higher = more lactate made per cell. Active means: 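Enhancement is called by pairing each knock-down's vehicle-arm and drug-arm fold-change classes for viability or glycolysis; which class combinations qualify is not given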. Calls: active = enhances vemurafenib effect; inactive = no enhancement seen.
The deposit covers about 18,000 reagents; shown is a part drawn at random. Over the whole deposit, 790 (4.4%) were called active. 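Calls rest on a combination of fold-change classes in drug and vehicle arms, not all shown here.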 A number with no mark means an inactive call. No sequences are given here.

target	PubChem SID	cell gain with vemurafenib	lactate per cell with vemurafenib
HIP1R (GeneID 9026)	SID134326729	0.93	0.91
TGIF2LY (GeneID 90655)	SID134321222	0.34	1.23
SPINK7 (GeneID 84651)	SID134319007	0.64	1.38
CYSTM1 (GeneID 84418)	SID152147100	0.24 (active)	0.06
ZFP2 (GeneID 80108)	SID134318687	0.82	0.96
SGTB (GeneID 54557)	SID152148548	0.57	1.16
MS4A10 (GeneID 341116)	SID152149396	0.59	1.46
AHI1 (GeneID 54806)	SID134322565	0.61	0.5
CDH13 (GeneID 1012)	SID152149731	0.52	1.01
BEX1 (GeneID 55859)	SID135622886	1.04	0.69
RSL24D1 (GeneID 51187)	SID134317404	0.03	0.62
CNNM3 (GeneID 26505)	SID152154158	0.4	1.57
PHYHIPL (GeneID 84457)	SID134318980	1.15	1.34
NEB (GeneID 4703)	SID135622216	0.92	0.82
HMMR (GeneID 3161)	SID134314977	0.6	0.94
POLR2E (GeneID 5434)	SID134310603	0.26	1.21
C6orf62 (GeneID 81688)	SID152155508	0.84	0.97
NKAPL (GeneID 222698)	SID152154174	0.51	0.71
FTL (GeneID 2512)	SID152151748	1.01	0.82
CD72 (GeneID 971)	SID134323292	1.46	0.8
IFIT1 (GeneID 3434)	SID152154644	0.85 (active)	0.48
ACOT8 (GeneID 10005)	SID135621806	0.35	1.58
MED29 (GeneID 55588)	SID152153115	0.53	0.7
PURB (GeneID 5814)	SID135622595	0.66	0.77
C1QTNF8 (GeneID 390664)	SID152150833	0.47	-0.08
RSBN1 (GeneID 54665)	SID152149789	0.67	1.03
INPP5K (GeneID 51763)	SID134321427	0.95	0.7
RNF103 (GeneID 7844)	SID134311913	1.04	0.74
CSN1S1 (GeneID 1446)	SID135623764	0.02	1.93
FGF7 (GeneID 2252)	SID134315983	0.69	0.6
CAVIN1 (GeneID 284119)	SID152150207	1.01	0.81
AKAP12 (GeneID 9590)	SID134314828	0.46 (active)	0.2
COQ4 (GeneID 51117)	SID135624100	0.67	0.89
BIVM (GeneID 54841)	SID134320568	0.83	0.6
LTF (GeneID 4057)	SID152148281	0.03 (active)	0.7
HAS1 (GeneID 3036)	SID134314391	0.13	2.24
SMARCA1 (GeneID 6594)	SID152151993	0.6	0.8
NRIP3 (GeneID 56675)	SID134318070	0.72	0.64
AIPL1 (GeneID 23746)	SID152147318	0.42	0.76
MND1 (GeneID 84057)	SID134318880	0.11	1.38
ST6GALNAC3 (GeneID 256435)	SID152149937	0.9	1.52
VPS26A (GeneID 9559)	SID152153026	0.52	0.88
ADAM11 (GeneID 4185)	SID135621764	0.72	0.96
ASAH2B (GeneID 653308)	SID135625537	0.33	0.46
LGSN (GeneID 51557)	SID134313303	0.88 (active)	0.47
STARD10 (GeneID 10809)	SID135622386	1.02	1.13
GINS4 (GeneID 84296)	SID152154655	0.28	0.82
ANXA5 (GeneID 308)	SID134315565	0.41	1.86
CCDC77 (GeneID 84318)	SID134318964	0.83	0.53
GIMAP1 (GeneID 170575)	SID152153550	1.19	0.97
NOS2 (GeneID 4843)	SID135621729	1.15	0.62
ARRDC1 (GeneID 92714)	SID152154124	0.89	0.85
DNMT1 (GeneID 1786)	SID134310549	0.56	1.66
PCDHB8 (GeneID 56128)	SID134317511	0.77	0.4
PARK7 (GeneID 11315)	SID134311409	0.25	3.08
ZC3H11A (GeneID 9877)	SID135624155	0.39	1.24
PIK3CA (GeneID 5290)	SID135620605	0.61	0.9
PIK3R2 (GeneID 5296)	SID135620607	0.26	1.35
JPH1 (GeneID 56704)	SID135622469	0.53	1.71
WRAP73 (GeneID 49856)	SID135622502	0.29	0.92
ZNF211 (GeneID 10520)	SID134323888	0.51	1.02
ST8SIA5 (GeneID 29906)	SID152147787	0.35	2.08
PCDHA4 (GeneID 56144)	SID134317489	0.93	0.2
TTLL4 (GeneID 9654)	SID152154985	0.64	0.74
TMEM42 (GeneID 131616)	SID152156058	1.04	1.06
GPR15 (GeneID 2838)	SID134310992	0.63	1.14
SP2 (GeneID 6668)	SID134319970	0.49	1.51
SMR3A (GeneID 26952)	SID152150210	0.35	1.4
DHRS2 (GeneID 10202)	SID152151184	0.7	0.54
RAB3C (GeneID 115827)	SID134313387	0.22	1.14
SLC35B1 (GeneID 10237)	SID152149120	0.69	0.78
SOX18 (GeneID 54345)	SID134322853	0.53	1.03
SSH3 (GeneID 54961)	SID134313778	0.74	0.73
GULP1 (GeneID 51454)	SID135621565	0.82	0.9
DUOX2 (GeneID 50506)	SID152149068	0.35	0.76
SCT (GeneID 6343)	SID135622452	0.13	2.83
ZSWIM2 (GeneID 151112)	SID152147917	1.04	0.74
ZNF34 (GeneID 80778)	SID152152669	0.39	1.04
C10orf90 (GeneID 118611)	SID152153528	0.63	0.68
FUCA1 (GeneID 2517)	SID152155378	0.46	2.25
DES (GeneID 1674)	SID135622164	0.94 (active)	0.45
NICN1 (GeneID 84276)	SID135623558	0.33	1.24
ACTG1 (GeneID 71)	SID134310837	0.4	1.25
TBCK (GeneID 93627)	SID56479023	0.86	0.85
LARS2 (GeneID 23395)	SID134312082	0.65	0.62
ARL4A (GeneID 10124)	SID152152190	0.47	0.97
ANKRD13D (GeneID 338692)	SID135624585	0.18	2.33
MRPL1 (GeneID 65008)	SID152150948	0.93	0.75
SLC39A5 (GeneID 283375)	SID135621359	-0.15	3.37
GNAZ (GeneID 2781)	SID134314975	0.36	1.01
ZFYVE1 (GeneID 53349)	SID134317323	0.86	0.33
TUT1 (GeneID 64852)	SID134318396	0.23	0.83
ECHDC1 (GeneID 55862)	SID135621792	0.56	0.67
KLF8 (GeneID 11279)	SID152149671	0.72	1.54
EIF4EBP1 (GeneID 1978)	SID152154692	0.43	0.59
TFEC (GeneID 22797)	SID152156323	1.17	0.56
SAYSD1 (GeneID 55776)	SID134324225	0.21	0.29
PAN3 (GeneID 255967)	SID135623434	1.06	0.57
TRIM7 (GeneID 81786)	SID134312200	1.04	0.88
RNF180 (GeneID 285671)	SID152156685	0.91	0.68
BPY2B (GeneID 442867)	SID135625128	1.01	0.78
CCDC33 (GeneID 80125)	SID135622028	0.42	1.47
ERG (GeneID 2078)	SID134310132	0.73	0.75
CPSF1 (GeneID 29894)	SID152149653	0.63	0.94
SLC1A4 (GeneID 6509)	SID135621368	0.75	0.52
SIAE (GeneID 54414)	SID134317960	0.52	1.15
MAFG (GeneID 4097)	SID135621713	0.6	1.18

Reformatted: 10 of the entries above.
{"target":"DNMT1 (GeneID 1786)","PubChem SID":"SID134310549","cell gain with vemurafenib":0.56,"lactate per cell with vemurafenib":1.66}
{"target":"PCDHB8 (GeneID 56128)","PubChem SID":"SID134317511","cell gain with vemurafenib":0.77,"lactate per cell with vemurafenib":0.4}
{"target":"PARK7 (GeneID 11315)","PubChem SID":"SID134311409","cell gain with vemurafenib":0.25,"lactate per cell with vemurafenib":3.08}
{"target":"ZC3H11A (GeneID 9877)","PubChem SID":"SID135624155","cell gain with vemurafenib":0.39,"lactate per cell with vemurafenib":1.24}
{"target":"PIK3CA (GeneID 5290)","PubChem SID":"SID135620605","cell gain with vemurafenib":0.61,"lactate per cell with vemurafenib":0.9}
{"target":"PIK3R2 (GeneID 5296)","PubChem SID":"SID135620607","cell gain with vemurafenib":0.26,"lactate per cell with vemurafenib":1.35}
{"target":"JPH1 (GeneID 56704)","PubChem SID":"SID135622469","cell gain with vemurafenib":0.53,"lactate per cell with vemurafenib":1.71}
{"target":"WRAP73 (GeneID 49856)","PubChem SID":"SID135622502","cell gain with vemurafenib":0.29,"lactate per cell with vemurafenib":0.92}
{"target":"ZNF211 (GeneID 10520)","PubChem SID":"SID134323888","cell gain with vemurafenib":0.51,"lactate per cell with vemurafenib":1.02}
{"target":"ST8SIA5 (GeneID 29906)","PubChem SID":"SID152147787","cell gain with vemurafenib":0.35,"lactate per cell with vemurafenib":2.08}
